No constants are given. Whether binding was seen depends on the method and setting. Some results given as binding are weak or reduced against the parent protein; the word gives no strength. Where a sequence is shown, tags or fusion partners need not be part of it.
B1: profilin-4 (PFN4), yeast two-hybrid fusion (protein, UniProt Q9D6I3 1-129)
chain: MSHLQNLLLDTLLGTKHVDSAALIKLQEKTLCVTSPGFSVMPSDVRTLLNGFAKNPLLTRREGLYFKEKDYKCVRADDYSLYAKNENTGVVVVKTNMYLVVATYTAGMYPSVCVEATEKLGEYLRKKGN
B2: mouse profilin-3 (mProfilin3), yeast two-hybrid fusion (protein, UniProt Q9DAD6 1-137)
chain: MSDWKGYISAVLRDQRIDDVAIVGHSDNRCVWASRPGGLLAAISPQEVGVLTGPDRHTFLQTGLSVAGRRCCVIRDYLLAEGDGVLDARTKGLDGRAICVGHTPRALLVLMGRRGVHGGILNKTVHDLIGGLREQCS

The chains behind the UniProt entries cited, without tags or fusion partners.
UniProt P50552: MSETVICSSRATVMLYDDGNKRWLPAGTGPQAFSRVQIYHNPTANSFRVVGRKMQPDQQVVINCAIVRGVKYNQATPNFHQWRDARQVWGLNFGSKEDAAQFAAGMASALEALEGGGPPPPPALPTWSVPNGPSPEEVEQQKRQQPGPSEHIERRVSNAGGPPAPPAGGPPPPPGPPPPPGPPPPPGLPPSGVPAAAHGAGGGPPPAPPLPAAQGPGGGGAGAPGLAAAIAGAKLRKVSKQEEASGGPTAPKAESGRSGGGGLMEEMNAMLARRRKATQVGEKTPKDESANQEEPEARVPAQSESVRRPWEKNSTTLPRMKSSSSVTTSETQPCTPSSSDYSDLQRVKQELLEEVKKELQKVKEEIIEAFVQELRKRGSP

Target: vasodilator-stimulated phosphoprotein (VASP), yeast two-hybrid fusion (human) (UniProt P50552)
Assay: two-hybrid; pairwise matings ("minimatings") of yeast strains AH109 and Y187, pGBKT7 and pGADT7 (Matchmaker Two-Hybrid System 3); growth on SD/-LTH, SD/-LTA, SD/-LTHA; quantitative β-galactosidase (lacZ) assay of diploids from SD/-LTHA; 30°C

binding | Molecule
binds | human profilin-2a (huProfilin2a), yeast two-hybrid fusion (from UniProt P35080-1 1-140)
no binding | B1
no binding | B2
